Results from patent publication US7514215B2, “Sulfotransferase SULT2A1 sequence variants” (Mayo Foundation for Medical Education and Research, priority 2001, dated 2009).

Test system: SULT2A1
Assay: Quantitative Western blot analysis of immunoreactive SULT2A1
Set-up: species or system human
Details: for Immunoreactive protein (%): percentage of wild type SULT2A1 protein band, corrected for transfection efficiency, average of three transfections
Protocol: Western blot analysis: Levels of immunoreactive SULT2A1 were determined for each recombinant allozyme by performing quantitative Western blot analysis. Rabbit polyclonal antibody directed against SULT2A1 amino acids 268-285, with an additional amino terminus cysteine (described in Wood et al., J. Steroid Biochem. Mol. Biol. 59:467-478 (1996)) at a dilution of 1:2000 was used in these studies. […] Electrophoresis was performed for 1 h at 150 volts, and proteins were transferred to nitrocellulose membranes. The membranes were blocked overnight at 4° C. with 5% dried milk in Tris buffered saline with Tween-20 (TBST). Subsequently, the membranes were incubated with primary antibody for 1 h, followed by three TBST washes. The secondary antibody, a 1:10,000 dilution of goat anti-rabbit horseradish peroxidase (BioRad), was applied for 1 h in 5% milk in TBST, followed by multiple washes. Bound antibody was detected with the ECL Western Blotting System (Amersham Pharmacia, Piscataway, N.J.). Multiple blots were assayed for each allozyme, and immunoreactive protein levels were expressed as a percentage of the intensity of the control wild type SULT2A1 protein band on the same gel. The AMBIS Radioanalytical Imaging System, Quant Probe v. 4.31 (AMBIS, San Diego, Calif. ) was used to analyze each blot.
Western blot analysis data were obtained by assaying cytosol for each allozyme from three independent transfections performed on different days to ensure that results were reproducible. The data listed in Table 5 are averages of those three transfections. It should be noted that none of the alterations in encoded amino acid for the variant allozymes studied were located within the sequence of the peptide used to generate the rabbit polyclonal antibody utilized to perform the Western blots.

| Molecule | level of immunoreactive protein (in words) | Immunoreactive protein (%) |
| --- | --- | --- |
| Ala63Pro: SULT2A1 allozyme having a proline at amino acid residue 63 in place of alanine (protein, UniProt Q06520 1-285, looked up, variant A63P) Sulfotransferase 2A1: MSDDFLWFEGIAFPTMGFRSETLRKVRDEFVIRDEDVIILTYPKSGTNWLAEILCLMHSKGDPKWIQSVPIWERSPWVESEIGYTALSETESPRLFSSHLPIQLFPKSFFSSKAKVIYLMRNPRDVLVSGYFFWKNMKFIKKPKSWEEYFEWFCQGTVLYGSWFDHIHGWMPMREEKNFLLLSYEELKQDTGRTIEKICQFLGKTLEPEELNLILKNSSFQSMKENKMSNYSLLSVDYVVDKAQLLRKGVSGDWKNHFTVAQAEDFDKLFQEKMADLPRELFPWE | decrease in immunoreactive protein | 27 ± 9 % |
| 63Pro/261Thr: SULT2A1 polypeptide with a proline at position 63 and a threonine at position 261 (double variant) (protein, UniProt Q06520 1-285, looked up, variant A63P A261T) Sulfotransferase 2A1: MSDDFLWFEGIAFPTMGFRSETLRKVRDEFVIRDEDVIILTYPKSGTNWLAEILCLMHSKGDPKWIQSVPIWERSPWVESEIGYTALSETESPRLFSSHLPIQLFPKSFFSSKAKVIYLMRNPRDVLVSGYFFWKNMKFIKKPKSWEEYFEWFCQGTVLYGSWFDHIHGWMPMREEKNFLLLSYEELKQDTGRTIEKICQFLGKTLEPEELNLILKNSSFQSMKENKMSNYSLLSVDYVVDKAQLLRKGVSGDWKNHFTVTQAEDFDKLFQEKMADLPRELFPWE | – | 26 ± 14 % |
| Ala261Thr: SULT2A1 allozyme having a threonine at amino acid 261 in place of an alanine (protein) MSDDFLWFEGIAFPTMGFRSETLRKVRDEFVIRDEDVIILTYPKSGTNWLAEILCLMHSKGDAKWIQSVPIWERSPWVESEIGYTALSESESPRLFSSHLPIQLFPKSFFSSKAKVIYLMRNPRDVLVSGYFFWKNMKFIKKPKSWEEYFEWFCQGTVLYGSWFDHIHGWMPMREEKNFLLLSYEELKQDTGRTIEKICQFLGKTLEPEELNLILKNSSFQSMKENKMSNYSLLSVDYVVDKAQLLRKGVSGDWKNHFTVTQAEDFDKLFQEKMADLPRELFPWE | – | 79 ± 7% |
| WT: recombinant wild type (reference) human SULT2A1 polypeptide, SEQ ID NO:3, expressed in COS-1 cells (protein, listed as Homo Sapiens) MSDDFLWFEGIAFPTMGFRSETLRKVRDEFVIRDEDVIILTYPKSGTNWLAEILCLMHSKGDAKWIQSVPIWERSPWVESEIGYTALSESESPRLFSSHLPIQLFPKSFFSSKAKVIYLMRNPRDVLVSGYFFWKNMKFIKKPKSWEEYFEWFCQGTVLYGSWFDHIHGWMPMREEKNFLLLSYEELKQDTGRTIEKICQFLGKTLEPEELNLILKNSSFQSMKENKMSNYSLLSVDYVVDKAQLLRKGVSGDWKNHFTVAQAEDFDKLFQEKMADLPRELFPWE | – | 100% |
| Lys227Glu: SULT2A1 allozyme having a glutamate at amino acid residue 227 in place of a lysine (protein, UniProt Q06520 1-285, looked up, variant K227E) Sulfotransferase 2A1: MSDDFLWFEGIAFPTMGFRSETLRKVRDEFVIRDEDVIILTYPKSGTNWLAEILCLMHSKGDAKWIQSVPIWERSPWVESEIGYTALSETESPRLFSSHLPIQLFPKSFFSSKAKVIYLMRNPRDVLVSGYFFWKNMKFIKKPKSWEEYFEWFCQGTVLYGSWFDHIHGWMPMREEKNFLLLSYEELKQDTGRTIEKICQFLGKTLEPEELNLILKNSSFQSMKENEMSNYSLLSVDYVVDKAQLLRKGVSGDWKNHFTVAQAEDFDKLFQEKMADLPRELFPWE | very low level of immunoreactive protein | 2 ± 1 % |
